Some entries share one result that the patent states for a list of compounds.
Test: TG-FTIR thermal decomposition
Type: physicochemical
Settings: nitrogen atmosphere, heating rate 10° C./min, 25-250° C.

| SMILES | decomposition temperature (TG-FTIR) |
| --- | --- |
| CC[C@@H](c1cccc(O)c1)[C@@H](C)CN(C)C [modification B, (1R,2R)-3-(3-dimethylamino-1-ethyl-2-methyl-propyl)-phenol] | above 160 °C |
| CC[C@@H](c1cccc(O)c1)[C@@H](C)CN(C)C [modification A, (1R,2R)-3-(3-dimethylamino-1-ethyl-2-methyl-propyl)-phenol] | above 160 °C |
